Reference: the odorant receptor screen of Mainland et al. (2015)
Several values for one entry are separate records, joined by “and”; a condition that tells them apart may be missing. Equal values may be shown once. The list shows a part of the results. Each value is one well over the wells without odorant, computed here; the data are noisy.

Experiments:
Assay in all cases: odorant receptor activation (CRE luciferase / Renilla) (fold of no-odor wells); higher = more activation
Settings in all cases: 100 µM
OR2T10 clone 1047 = test system: OR2T10 clone 1047
[1] = test system: OR2T11 C119R/Q309R clone 1050
[2] = test system: OR2T11 C119R/Q309R clone 1051
OR2T2 clone 1561 = test system: OR2T2 clone 1561
OR2T29 clone 1545 = test system: OR2T29 clone 1545
OR2T3 clone 1397 = test system: OR2T3 clone 1397
OR2T34 clone 1049 = test system: OR2T34 clone 1049
OR2T35 V31I clone 1562 = test system: OR2T35 V31I clone 1562
OR2T4 clone 1347 = test system: OR2T4 clone 1347
OR2T5 clone 1033 = test system: OR2T5 clone 1033
OR2T5 clone 1495 = test system: OR2T5 clone 1495
OR2T5 clone 1496 = test system: OR2T5 clone 1496
[3] = test system: OR2T6 N21D/C23G/S243A clone 1432
OR2T8 clone 1576 = test system: OR2T8 clone 1576
OR2V1 clone 1718 = test system: OR2V1 clone 1718
OR2W1 D296N clone 1536 = test system: OR2W1 D296N clone 1536
OR2W1 clone 1067 = test system: OR2W1 clone 1067
OR2W3 Indel clone 1491 = test system: OR2W3 Indel clone 1491
OR2W5 clone 1506 = test system: OR2W5 clone 1506
OR2Y1 V200L clone 1069 = test system: OR2Y1 V200L clone 1069

| Structure (SMILES) | odorant receptor activation (OR2T10 clone 1047) | odorant receptor activation [1] | odorant receptor activation [2] | odorant receptor activation (OR2T2 clone 1561) | odorant receptor activation (OR2T29 clone 1545) | odorant receptor activation (OR2T3 clone 1397) | odorant receptor activation (OR2T34 clone 1049) | odorant receptor activation (OR2T35 V31I clone 1562) | odorant receptor activation (OR2T4 clone 1347) | odorant receptor activation (OR2T5 clone 1033) | odorant receptor activation (OR2T5 clone 1495) | odorant receptor activation (OR2T5 clone 1496) | odorant receptor activation [3] | odorant receptor activation (OR2T8 clone 1576) | odorant receptor activation (OR2V1 clone 1718) | odorant receptor activation (OR2W1 D296N clone 1536) | odorant receptor activation (OR2W1 clone 1067) | odorant receptor activation (OR2W3 Indel clone 1491) | odorant receptor activation (OR2W5 clone 1506) | odorant receptor activation (OR2Y1 V200L clone 1069) |
| --- | --- | --- | --- | --- | --- | --- | --- | --- | --- | --- | --- | --- | --- | --- | --- | --- | --- | --- | --- | --- |
| COc1cc(C)ccc1O [2-methoxy-4-methylphenol] | 1.68 | 1.87 | 1.75 | 0.734 | 1.01 | 0.762 | 1.47 | 0.074 | 1.22 | 1.11 | 0.79 | 0.861 | 1.22 | 0.671 | 0.908 | 0.968 | 1.38 and 1.55 | 0.794 | 1 | 1.42 |
| CCCCCCOC(=O)CCC [hexyl butyrate] | 1.23 | 0.596 | 1.88 | 0.9 | 1.08 and 1.52 | 0.834 | 1.02 | 0.975 | 1.12 and 0.828 | 0.612 | 0.895 and 0.886 | 1.42 and 0.813 | 0.836 | 0.983 | 1.02 | 1.5 and 1.09 | 1.36 and 1.06 | 0.725 and 1.17 | 0.934 and 0.969 | 1.54 |
| CC(C)(O)CCCC1=CCC(C=O)CC1 (stereo not drawn) [lyral] | – | – | – | 0.845 | – | – | – | 0.877 | – | – | – | – | – | 0.957 | 1.15 | – | 1.02 | – | – | – |
| CC(C)CC(=O)O [isovaleric acid] | 1.39 | 0.999 | 1.19 | 1.06 | 0.991 | 0.995 | 0.805 | 0.068 | 0.733 | 1.2 | 1.03 | 1.06 | 0.856 | 0.881 | 1.08 | 0.86 | 0.964 and 1.25 | 0.872 | 0.825 | 1.42 |
| CCCCCCCOC(C)=O [heptyl acetate] | 0.82 | 0.696 | 1.2 | 0.894 | 1.03 and 1.7 | 1.09 | 1.76 | 0.841 | 0.834 and 1 | 0.798 | 0.739 and 1.19 | 1.17 and 0.974 | 1.11 | 0.861 | 0.801 | 2.58 and 2.38 | 1.22 and 1.04 | 0.869 and 1.55 | 1.1 and 1.16 | 0.93 |
| CCCCCOC(C)=O [n-amyl acetate] | 2.13 | 1.54 | 2.05 | 0.647 | – | 0.766 | 1.85 | 1.09 | 0.738 | 0.854 | 0.934 and 0.994 | 0.955 and 0.798 | 0.979 | 1.06 | 0.882 | 1.62 and 2.19 | – | 1.07 and 0.921 | 0.774 and 0.723 | 1.23 |
| CCCCCCCCOC(C)=O [octyl acetate] | 1.09 | 0.72 | 1.09 | 0.696 | 0.864 | 0.962 | 0.9 | 0.907 | 0.885 | 0.974 | 0.939 | 1.19 | 1.02 | 0.786 | 0.755 | 2.28 | 1.16 and 3.25 | 0.787 | 0.827 | 1.04 |
| CC1CCC(C(C)C)C(O)C1 (single isomer, unassigned; (+)) [(+)-menthol] | 3.32 | 3.76 | 3.2 | 0.85 | 1.19 | 0.854 | 3.39 | 1.36 | 1.15 | 2.7 | 0.956 | 1.17 | 1.08 | 0.617 | 0.884 | 2.04 | 3.96 and 2.3 | 1.04 | 1.12 | 3.19 |
| CC1=NC(C)SC1C (stereo not drawn) | 0.98 | 0.689 | 0.535 | – | – | 0.875 | 0.81 | – | 1.14 | 0.873 | 1.32 and 0.961 | 1.06 and 0.904 | 1.25 | – | – | 0.85 and 0.868 | – | 0.981 and 0.98 | 1.27 and 0.81 | 1.31 |
| CC(=O)OC1CC2CCC1(C)C2(C)C (stereo not drawn) [isobornyl acetate] | 0.687 | 0.689 | 1.56 | 0.847 | 0.872 and 1.15 | 0.856 | 1.64 | 0.175 | 1.05 and 0.721 | 0.717 | 0.752 and 1.08 | 1.57 and 0.872 | 0.876 | 1.04 | 1.15 | 1.18 and 0.921 | 1.16 and 0.652 | 0.774 and 1.36 | 0.929 and 1.29 | 0.827 |
| CC1=CCC(C(C)(C)O)CC1 (stereo not drawn) [terpineol] | 1.06 | 1.05 | 0.775 | 0.75 | 1.02 | 1.09 | 1.03 | 0.828 | 0.779 | 1.14 | 0.794 | 1.16 | 0.828 | 0.953 | 1.12 | 1.67 | 1.57 and 2.13 | 0.663 | 0.676 | 0.755 |
| c1ccc(Oc2ccccc2)cc1 [diphenyl ether] | 0.875 | 1.06 | 1.06 | 0.687 | 1.39 | 0.824 | 1.07 | 0.775 | 0.942 | 0.74 | 0.993 | 1.26 | 0.979 | 0.827 | 0.771 | 1.53 | 1.79 and 1.85 | 1.21 | 1.09 | 0.857 |
| COC(=O)c1ccccc1 [methyl benzoate] | 2.12 | 1.55 | 1.86 | – | – | 0.868 | 1.49 | – | 0.99 | 1.82 | 0.7 and 1.04 | 0.99 and 1.1 | 0.878 | – | – | 1.4 and 1.92 | – | 1.13 and 0.974 | 0.712 and 0.929 | 1.57 |
| CC(C)(C)c1ccc(CCC=O)cc1 [bourgeonal] | 0.888 | 0.928 | 1.08 | – | 0.858 | 0.18 | 0.693 | – | 0.931 | 0.861 | 1.14 | 0.823 | 0.154 | – | – | 0.923 | 0.595 | 1.05 | 1.02 | 1.13 |
| CC12C=CCC1C1CCC3=CC(=O)CCC3(C)C1CC2 (stereo not drawn) [androstadienone] | 1.09 | 0.629 | 1.62 | – | 1.04 and 2.06 | 0.825 | 2.03 | – | 1.12 and 0.917 | 0.906 | 0.898 and 1.45 | 1.35 and 1.07 | 0.793 | – | – | 1.23 and 1.3 | 1.42 | 0.889 and 1.62 | 1.13 | 3.63 |

A second format for 2 compounds above:
Structure (SMILES)	odorant receptor activation (OR2T10 clone 1047)	odorant receptor activation [1]	odorant receptor activation [2]	odorant receptor activation (OR2T2 clone 1561)	odorant receptor activation (OR2T29 clone 1545)	odorant receptor activation (OR2T3 clone 1397)	odorant receptor activation (OR2T34 clone 1049)	odorant receptor activation (OR2T35 V31I clone 1562)	odorant receptor activation (OR2T4 clone 1347)	odorant receptor activation (OR2T5 clone 1033)	odorant receptor activation (OR2T5 clone 1495)	odorant receptor activation (OR2T5 clone 1496)	odorant receptor activation [3]	odorant receptor activation (OR2T8 clone 1576)	odorant receptor activation (OR2V1 clone 1718)	odorant receptor activation (OR2W1 D296N clone 1536)	odorant receptor activation (OR2W1 clone 1067)	odorant receptor activation (OR2W3 Indel clone 1491)	odorant receptor activation (OR2W5 clone 1506)	odorant receptor activation (OR2Y1 V200L clone 1069)
CCCCCCCCOC(C)=O [octyl acetate]	1.09	0.72	1.09	0.696	0.864	0.962	0.9	0.907	0.885	0.974	0.939	1.19	1.02	0.786	0.755	2.28	1.16 and 3.25	0.787	0.827	1.04
CC12C=CCC1C1CCC3=CC(=O)CCC3(C)C1CC2 (stereo not drawn) [androstadienone]	1.09	0.629	1.62	–	1.04 and 2.06	0.825	2.03	–	1.12 and 0.917	0.906	0.898 and 1.45	1.35 and 1.07	0.793	–	–	1.23 and 1.3	1.42	0.889 and 1.62	1.13	3.63
